{"sequences": {"note": "The chains behind the UniProt entries cited, without tags or fusion partners.", "UniProt Q01196": "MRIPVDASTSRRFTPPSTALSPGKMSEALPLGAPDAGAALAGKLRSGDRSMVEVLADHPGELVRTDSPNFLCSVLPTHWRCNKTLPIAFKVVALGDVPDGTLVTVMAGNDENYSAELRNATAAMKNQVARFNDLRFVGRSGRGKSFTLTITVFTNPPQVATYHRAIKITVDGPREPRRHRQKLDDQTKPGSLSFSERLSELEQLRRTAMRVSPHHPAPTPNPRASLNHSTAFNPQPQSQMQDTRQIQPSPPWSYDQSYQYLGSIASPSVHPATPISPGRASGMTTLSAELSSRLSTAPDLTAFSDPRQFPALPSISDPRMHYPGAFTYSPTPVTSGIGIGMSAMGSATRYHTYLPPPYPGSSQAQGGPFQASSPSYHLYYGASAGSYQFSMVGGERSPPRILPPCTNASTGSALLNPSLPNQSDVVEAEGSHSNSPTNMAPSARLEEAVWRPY", "UniProt P14618": "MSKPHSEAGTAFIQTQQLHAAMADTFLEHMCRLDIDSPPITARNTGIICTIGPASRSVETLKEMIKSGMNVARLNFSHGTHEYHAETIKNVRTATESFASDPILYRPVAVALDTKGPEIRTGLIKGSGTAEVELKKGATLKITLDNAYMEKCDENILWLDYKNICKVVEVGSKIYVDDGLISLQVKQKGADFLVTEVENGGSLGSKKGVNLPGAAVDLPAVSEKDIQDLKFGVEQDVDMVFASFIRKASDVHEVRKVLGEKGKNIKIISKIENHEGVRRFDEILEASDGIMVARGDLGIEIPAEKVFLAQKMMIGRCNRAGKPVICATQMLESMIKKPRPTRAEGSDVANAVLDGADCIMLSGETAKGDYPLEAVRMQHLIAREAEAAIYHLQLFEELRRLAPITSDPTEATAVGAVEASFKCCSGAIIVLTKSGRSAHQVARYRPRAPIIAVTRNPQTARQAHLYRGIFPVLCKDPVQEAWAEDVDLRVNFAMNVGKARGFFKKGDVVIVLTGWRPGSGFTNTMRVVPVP"}, "source": "paper PMC7817830", "test_in_all_cases": "co-IP; whole-cell extracts of transfected NB4 cells, overnight with the antibody (anti-Flag, anti-PKM2 or anti-HA) and protein A/G plus-agarose at 4 °C; wash 50 mM Tris-HCl pH 7.6, 300 mM NaCl, 1 mM EDTA, 0.5% Nonidet P-40, 10% glycerol; western blot", "key": {"[1]": {"biological_target": "HA-RUNX1 expressed in NB4 cells (human) (UniProt Q01196)"}, "[2]": {"biological_target": "Flag-PKM2 expressed in NB4 cells (UniProt P14618)"}, "[3]": {"biological_target": "Flag-tagged RUNX1 (Runt-related transcription factor 1), full length (human) (UniProt Q01196)"}, "[4]": {"biological_target": "endogenous PKM2 of NB4 cells (human (endogenous in NB4)) (UniProt P14618)"}}, "note": "No constants are given. Whether binding was seen depends on the method and setting. In cells and extracts the contact can be indirect. Some entries that bind do so weakly or less than the wild type."}
{"substance": "WT PKM2 co-expressed with HA-RUNX1 in NB4 cells (from UniProt P14618 1-531) (enzyme)", "values": [{"measurement": "binding", "setting": "[1]", "result": "binds"}]}
{"substance": "WT RUNX1 co-expressed with Flag-PKM2 in NB4 cells (from UniProt Q01196 1-453)", "values": [{"measurement": "binding", "setting": "[2]", "result": "binds"}]}
{"substance": "endogenous PKM2 of NB4 cells (from UniProt P14618 1-531) (enzyme)", "values": [{"measurement": "binding", "setting": "[3]", "result": "binds"}]}
{"substance": "Flag-tagged RUNX1 (Runt-related transcription factor 1), full length (from UniProt Q01196 1-453)", "values": [{"measurement": "binding", "setting": "[4]", "result": "binds"}]}
